In paper PMC6037667:
Construct, isoform or probe ends are uncertain for at least one entry. Where cells or extracts were used, other partners may take part.

The chains behind the UniProt entries cited, without tags or fusion partners.
UniProt Q13950, whole entry S118D: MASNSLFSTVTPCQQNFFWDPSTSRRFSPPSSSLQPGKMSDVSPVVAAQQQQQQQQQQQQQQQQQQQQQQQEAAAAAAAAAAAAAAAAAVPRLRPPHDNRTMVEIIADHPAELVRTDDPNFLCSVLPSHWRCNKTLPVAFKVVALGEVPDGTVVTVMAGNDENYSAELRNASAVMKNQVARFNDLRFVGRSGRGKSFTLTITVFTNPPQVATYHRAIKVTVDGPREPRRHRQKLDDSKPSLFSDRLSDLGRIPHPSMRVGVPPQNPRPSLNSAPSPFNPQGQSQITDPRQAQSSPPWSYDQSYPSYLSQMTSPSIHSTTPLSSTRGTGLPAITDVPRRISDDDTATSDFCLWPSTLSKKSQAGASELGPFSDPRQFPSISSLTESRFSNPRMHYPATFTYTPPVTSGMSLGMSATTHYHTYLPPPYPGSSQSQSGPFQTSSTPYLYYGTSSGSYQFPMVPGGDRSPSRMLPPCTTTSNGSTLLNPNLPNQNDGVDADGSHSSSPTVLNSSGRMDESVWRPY
UniProt Q13950, whole entry: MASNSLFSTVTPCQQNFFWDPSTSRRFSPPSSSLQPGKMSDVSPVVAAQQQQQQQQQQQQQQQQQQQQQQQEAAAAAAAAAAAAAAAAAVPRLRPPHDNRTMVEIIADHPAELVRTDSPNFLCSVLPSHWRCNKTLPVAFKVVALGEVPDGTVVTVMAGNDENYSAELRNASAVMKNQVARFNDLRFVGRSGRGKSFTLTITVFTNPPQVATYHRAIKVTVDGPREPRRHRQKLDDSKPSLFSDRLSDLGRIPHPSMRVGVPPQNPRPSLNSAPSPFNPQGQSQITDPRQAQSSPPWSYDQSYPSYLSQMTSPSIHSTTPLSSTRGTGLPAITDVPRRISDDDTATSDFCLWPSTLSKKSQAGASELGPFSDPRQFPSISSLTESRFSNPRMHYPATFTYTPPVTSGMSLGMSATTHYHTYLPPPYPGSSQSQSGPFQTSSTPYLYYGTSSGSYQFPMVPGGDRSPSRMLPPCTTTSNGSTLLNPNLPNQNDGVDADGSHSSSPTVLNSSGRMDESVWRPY

Assays:
RUNX2-S118D = RUNX2-S118D (UniProt Q13950); experiment: EMSA; conditions: no drug stated, enhanced binding; EMSA: 5 ug nuclear extract, 10 pmol probe, 37 C, 30 min, 1x binding buffer printed as 200 mM HEPES pH 7.4, 40 mM DTT, 4 mM EDTA pH 8.0, 50% glycerol; protein in a lysate after overexpression; residues 1-521; protein details: DsRed (pDsRed1-N1); label: 32P ([gamma-32P])
RUNX2-WT = RUNX2-WT (UniProt Q13950); experiment: EMSA; conditions: metformin 5 mM, 6 h (cells), enhanced binding; EMSA: 5 ug nuclear extract, 10 pmol probe, 37 C, 30 min, 1x binding buffer printed as 200 mM HEPES pH 7.4, 40 mM DTT, 4 mM EDTA pH 8.0, 50% glycerol; protein in a lysate after overexpression; residues 1-521; protein details: DsRed (pDsRed1-N1); label: 32P ([gamma-32P])

“CGAGTATTGTGGTTAATACG (double strand) [Osteocalcin promoter RUNX2 consensus site at -140]”: binds (RUNX2-S118D); binds (RUNX2-WT).
